Data on 63 compounds can be found in PubChem BioAssay AID2685 (National Center for Advancing Translational Sciences (NCATS), 2010).

This experiment can be described thus: qHTS Assay for Lipid Storage Modulators in Drosophila S3 Cells.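 On cell number change: cells counted by Cell Tracker Red CMTPX staining in the red channel.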 Particulars: BODIPY lipid droplet fluorescence, 18-24 h; for cell number change: measured here: cell count max response, cells fed with added oleic acid. Summed up: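 Drosophila S3 cells loaded with oleic acid (400 uM, as added) and compounds at several concentrations; lipid droplets imaged by 488-nm laser-scanning cytometry, 500–530 nm intensity and object ratio to cell channel. Percent activity normalized to 20 uM Triacsin C.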

The mark [1] stands for this setting: measured here: lipid fluorescence (Fed channel) AC50, cells fed with added oleic acid.
The mark [2] stands for this setting: measured here: cell number channel AC50, cells fed with added oleic acid.

Some of the results follow. Shown are side measurements of this screen, not its main read-out; they come without a call. Most of these compounds were active or inconclusive in the main read-out, so they are no random draw. Words in brackets tell the shape of the fitted curve; partial curves, single points and poor fits give uncertain potencies.

`O=C(Cn1cnc2ccccc2c1=O)c1c[nH]c2ccccc12`: the cell number change is 11.9%. Moreover, the AC50 under setting [1] is 3.26 µM [rising, single point].

`CC(C)(C)c1ccc(C(=O)c2c[nH]c(C(=O)O)c2)cc1`: the cell number change is -15.4%. Also, the AC50 under setting [2] is 6.51 µM [rising, single point].

Take `CC(=O)c1ccc(O)c(CO)c1`: the cell number change is -4.79%. The AC50 under setting [1] is 0.0058 µM [falling, full curve, poor fit].

`COc1cccc(C(=O)Nc2ccc(N(C)C)cc2)c1OC`: the cell number change is 32.7%. Besides, the AC50 under setting [2] is 2.06 µM [rising, full curve, poor fit]. Further, the AC50 under setting [1] was 4.11 µM [rising, partial curve].

As to `CCOc1cc(C#N)c(NC(=O)c2ccnn2C)cc1OCC`, the cell number change turned out to be 11.1%.

Regarding `CC(Nc1ccc(Cl)cc1)C(=O)NN` (stereo not drawn), the cell number change came out at 43.2%. For the same compound, the AC50 under setting [2] was 29.1 µM [rising, single point]. Under setting [1], the AC50 is 29.1 µM [rising, single point].

For `CCOc1ncccc1C(=O)OCC(=O)Nc1c(C)cccc1C`, the AC50 is 0.0517 µM [rising, full curve, poor fit] under setting [2] and 0.0651 µM [rising, full curve, poor fit] under setting [1].

Turning to `O=c1cc(CO)occ1OCc1cccc(C(F)(F)F)c1`, the cell number change is -39.9%. In addition, the AC50 under setting [2] is 3.66 µM [falling, full curve]. Also, under setting [1], the AC50 is 25.9 µM [falling, single point].

Turning to `C#CCNC(=O)C1CCN(c2cc(C)nc(-c3ccccc3)n2)CC1`, the cell number change was -5.79%. In addition, the AC50 under setting [1] was 29.1 µM [falling, single point].

With `Cc1cc2c(n1-c1ccc(Br)cc1)CC(C)(C)CC2=O`, the cell number change was -7.94%.

Turning to `S=C(NC1CCCC1)N1CCN(c2cccc(Cl)c2)CC1`, the cell number change is -32%.

`O=C(c1ccccc1)c1ccc(OCCCN2CCCC2)cc1`: the cell number change worked out at 6.35%. Further, under setting [1], the AC50 was 16.4 µM [rising, single point].

As for `Cc1ccnc(NS(=O)(=O)c2ccc(N3C(=O)C4CCCCC4C3=O)cc2)n1` (stereo not drawn), the cell number change was -8.97%.

On to `Cc1ccc(C(=O)N2CCN(c3ncnc4c(C)csc34)CC2)cc1`, for which the cell number change was -25%. Under setting [1], the AC50 was 16.4 µM [falling, single point].

As for `O=C(CN1CCN(Cc2ccc(Cl)cc2)C1=O)NCCN1CCCC1`, the cell number change was -1.08%. Also, the AC50 under setting [1] is 6.51 µM [rising, single point].

For the compound `Cc1ccc(Cl)c(OCC(=O)Nc2ccc(S(=O)(=O)NC3=NCCCCC3)cc2)c1`, the cell number change is -21.7%.

Turning to `OCCCNc1nc(-c2ccc(Br)cc2)nnc1-c1ccc(Cl)cc1`, the cell number change was -3.46%. Moreover, the AC50 under setting [1] was 6.51 µM [rising, single point].

`CC1=NOC(=O)/C1=C\c1ccc(-c2ccc(Cl)c(C(=O)O)c2)o1`: the cell number change is -29.3%. The AC50 under setting [1] is 23.1 µM [falling, single point].

Regarding `Cc1nnc(SCC(=O)N(C(C)C)C(C)C)nc1C`, the AC50 under setting [2] is 3.26 µM [falling, partial curve].

As for `CCOC(=O)[C@H]1[C@H]2COc3ccc(Cl)cc3[C@@H]2N2C(=O)CNC(=O)[C@@]12C`, the cell number change was found to be 11.9%. The AC50 under setting [1] was 1.16 µM [rising, single point].

As for `N#Cc1cccc(NC(=O)CSc2nnc(-c3n[nH]c4ccccc34)o2)c1`, the cell number change is -128%.

In the case of `COC(c1ccccc1)c1nnc(CCC(=O)N2CCN(Cc3cccs3)CC2)o1` (stereo not drawn), the cell number change is -3.84%. The AC50 under setting [1] is 0.092 µM [falling, full curve, poor fit].

Turning to `O=C1c2ccccc2C(=O)N1Cc1nc(-c2ccccc2)no1`, the cell number change is -0.578%. The AC50 under setting [2] was 3.26 µM [rising, partial curve, poor fit].

For `O=C(Nc1ccc([N+](=O)[O-])cc1)Nc1cnccn1`, the cell number change was 19.9%.

Regarding `CCOC(=O)C1=C(C)Nc2nnnn2C1c1ccc(OC)c(Br)c1` (stereo not drawn), the cell number change came out at 2.99%. The AC50 under setting [1] was 0.411 µM [rising, partial curve].

Consider `Cc1ccc(S(=O)(=O)N2C(=S)SCC2(C)C)cc1`, for which the cell number change was -12.1%. In addition, the AC50 under setting [1] was 3.66 µM [falling, full curve, poor fit].

For the compound `CCN(CC)C(=O)c1sc2nc(-c3ccccc3)ccc2c1N`, the cell number change worked out at 22.4%. Also, the AC50 under setting [2] was 1.84 µM [rising, partial curve, poor fit]. Moreover, under setting [1], the AC50 is 1.84 µM [rising, partial curve].

For `CN(Cc1cccc(Cl)c1Cl)CC(O)COc1ccccc1` (stereo not drawn), the cell number change is -53.3%. Moreover, under setting [2], the AC50 is 32.6 µM [falling, partial curve]. The AC50 under setting [1] was 32.6 µM [falling, single point].

In the case of `COc1ccc(OCCC(=O)NC2CCCCC2)cc1`, the cell number change was 43.4%. Besides, under setting [2], the AC50 was 29.1 µM [rising, single point].

On to `COc1ccc(CCNC(=O)CNCCc2ccc(F)cc2)cc1`, for which the cell number change was found to be 24.8%. For the same compound, the AC50 under setting [1] is 18.4 µM [rising, single point].

For the compound `Cc1ccc2cc(CCNC(=O)CC(C)C)c(=O)[nH]c2c1`, the cell number change is 5.8%. Besides, the AC50 under setting [1] is 0.164 µM [rising, full curve, poor fit].

With `COc1ccc(CN(C(=O)c2cc(=O)c3ccccc3o2)C2CCS(=O)(=O)C2)cc1OC` (stereo not drawn), the cell number change turned out to be 20.3%.

As for `Cc1ccc(NC(=O)Nc2ccc(Cl)c(Cl)c2)nc1`, the cell number change was -1.39%. The AC50 under setting [1] was 6.51 µM [falling, partial curve, poor fit].

On to `Cc1ccc([C@@H]2[C@@H]3C(=O)N(c4ccccc4)C(=O)[C@@H]3[C@]3(C)C(=O)N(Cc4ccccn4)CC(=O)N23)o1`, for which the cell number change is -2.99%.

Consider `COc1ccccc1CN(Cc1nc2ccccc2c(=O)[nH]1)C(=O)Nc1ccccc1`, for which, under setting [2], the AC50 is 2.31 µM [rising, partial curve].

Consider `Cc1cccc(-n2c(C)nc3c(cnn3-c3ccc(F)cc3)c2=O)c1`, for which the cell number change is -24.3%. Also, the concentration at half-maximal activity (AC50) under setting [2] is 0.00517 µM [falling, full curve, poor fit]. For the same compound, under setting [1], the AC50 is 0.326 µM [falling, full curve].

In the case of `CC1CCN(S(=O)(=O)N2CCC(C(=O)NCc3ccc4c(c3)OCO4)CC2)CC1`, the cell number change stood at 30.9%. Further, the AC50 under setting [1] is 6.51 µM [rising, full curve].

`Cc1nnc(SCC(=O)Nn2cnnc2)s1`: the cell number change came to 7.23%.

As to `CCN1CCN(C(=S)c2ccc(SC)cc2)CC1`, the cell number change amounted to 12.1%. Moreover, under setting [1], the AC50 was 25.9 µM [rising, single point].

As for `Cc1c(C(=O)N(C)CCOc2ccccc2)oc2c(Cl)cccc12`, the cell number change was found to be 26.7%. The AC50 under setting [1] is 23.1 µM [rising, single point].

As for `CCOc1cc(/C=C2\NC(=S)N(c3c(C)n(C)n(-c4ccccc4)c3=O)C2=O)ccc1O`, the cell number change is 25.1%.

As for `CC(=O)N(CN1C(=O)c2ccccc2C1=O)c1ccccc1`, the cell number change was found to be 3.76%. The AC50 under setting [1] was 0.82 µM [falling, single point].

As to `C=CCn1c(CNC(=O)c2cccs2)nnc1SCC(=O)c1ccc(Br)cc1`, the cell number change is 11.4%.

For `CC(Sc1nc(N)cc(=O)[nH]1)C(=O)Nc1nc2c(s1)CCCC2` (stereo not drawn), the cell number change turned out to be 1.28%. Also, under setting [1], the AC50 was 6.51 µM [rising, single point].

With `O=C(Nc1nc2c(s1)CCCC2)c1ccc(Br)o1`, the cell number change is 13.3%. Also, under setting [2], the half-maximal activity concentration (AC50) was 4.61 µM [falling, single point].

Turning to `Cc1cccc(C(=O)NCC(=O)OCC(=O)NC2CCCCCCC2)c1`, the cell number change is -8.75%.

On to `O=C1CCc2cc(S(=O)(=O)Nc3ccccc3F)ccc2N1`, for which the cell number change was -23%. The AC50 under setting [2] was 1.84 µM [falling, partial curve]. Also, the AC50 under setting [1] is 6.51 µM [falling, single point].

`CCCNC(=O)C12CCC(C)(c3nc4cc(C)c(C)cc4nc31)C2(C)C` (stereo not drawn): the AC50 under setting [2] is 3.66 µM [rising, partial curve].

As for `O=C(Nc1nnc(SCc2ccc(F)cc2)s1)c1ccco1`, the cell number change is -4.29%. In addition, under setting [1], the AC50 is 6.51 µM [falling, single point].

In the case of `COC(C(=O)Nc1ccnn1C1CCN(Cc2cnn(C(C)C)c2)CC1)c1ccccc1` (stereo not drawn), the cell number change stood at 36.3%. In addition, the AC50 under setting [2] was 29.1 µM [rising, single point]. Besides, the AC50 under setting [1] is 29.1 µM [rising, single point].

With `NS(=O)(=O)c1ccc(CCN2C(=O)/C(=C\c3ccc(Cl)cc3)SC2=S)cc1`, the cell number change was -38%. Moreover, the AC50 under setting [1] is 16.4 µM [falling, single point].

Take `O=[N+]([O-])c1cc(CN2CCC(O)CC2)ccc1Cl`: the cell number change was -53.8%. Besides, the AC50 under setting [2] is 0.259 µM [falling, full curve]. Also, under setting [1], the AC50 is 0.58 µM [falling, partial curve].

`O=C1C(Cc2ccccc2)Nc2ncnc(N3CCc4ccccc4C3)c2N1Cc1ccc(Br)cc1` (stereo not drawn): the cell number change was determined as 14.1%. Further, the AC50 under setting [2] is 6.51 µM [falling, single point]. For the same compound, the AC50 under setting [1] is 6.51 µM [falling, single point].

On to `COC(=O)c1ccccc1NC(=O)Cn1cnc2ccc(S(=O)(=O)N3CCC(C)CC3)cc2c1=O`, for which the cell number change amounted to 8.31%. For the same compound, the AC50 under setting [1] is 0.146 µM [rising, full curve, poor fit].

On to `COc1ccc(NC(=O)CN(C)CC(=O)Nc2ccc(Cl)c(S(=O)(=O)N(C)C)c2)cc1`, for which the cell number change is -17.5%. Further, the AC50 under setting [1] was 6.51 µM [rising, single point].

`CC(=O)c1ccc(C(=O)N2CCCC(Nc3ccc(C(C)C)cc3)C2)s1` (stereo not drawn): the cell number change was -21%.

As for `C/C=C/c1ccc(OCC(=O)OCC)c(OC)c1`, the cell number change was -27.6%. Besides, the AC50 under setting [1] is 29.1 µM [falling, single point].

`CCCc1nnc(SCc2ccc(C(=O)OC)o2)n1N`: the cell number change was determined as 10%. Under setting [1], the AC50 was 0.164 µM [falling, full curve, poor fit].

Take `COCC(=O)Nc1ccc2c(c1)OCC(=O)N2Cc1ccccc1F`: the cell number change stood at 7.38%. For the same compound, the AC50 under setting [1] is 0.146 µM [rising, full curve, poor fit].

Consider `CCOC(=O)c1ccc(NS(=O)(=O)c2cccc3nsnc23)cc1`, for which the cell number change worked out at 104%.

In the case of `CN(C)c1cc[n+](CC(=O)Nc2ccc(Cl)c([N+](=O)[O-])c2)cc1`, the cell number change was found to be 7.04%.

With `COc1ccc(C(CNC(=O)c2ccc(S(=O)(=O)Nc3ccc(F)cc3)cc2)N(C)C)cc1` (stereo not drawn), the cell number change was determined as 13.7%. The AC50 under setting [1] is 29.1 µM [rising, single point].

Consider `COc1cc(NC(=O)c2cnc(N)o2)cc(C(=O)Nc2cccc(C(F)(F)F)c2)c1`, for which the cell number change was -59.6%. Also, under setting [2], the AC50 was 29.1 µM [falling, single point]. Moreover, the AC50 under setting [1] is 29.1 µM [falling, single point].
